## Percent effect of library compounds

Amino acid sequences for entries named in this document (tags omitted).
UniProt P9WNZ1, whole entry: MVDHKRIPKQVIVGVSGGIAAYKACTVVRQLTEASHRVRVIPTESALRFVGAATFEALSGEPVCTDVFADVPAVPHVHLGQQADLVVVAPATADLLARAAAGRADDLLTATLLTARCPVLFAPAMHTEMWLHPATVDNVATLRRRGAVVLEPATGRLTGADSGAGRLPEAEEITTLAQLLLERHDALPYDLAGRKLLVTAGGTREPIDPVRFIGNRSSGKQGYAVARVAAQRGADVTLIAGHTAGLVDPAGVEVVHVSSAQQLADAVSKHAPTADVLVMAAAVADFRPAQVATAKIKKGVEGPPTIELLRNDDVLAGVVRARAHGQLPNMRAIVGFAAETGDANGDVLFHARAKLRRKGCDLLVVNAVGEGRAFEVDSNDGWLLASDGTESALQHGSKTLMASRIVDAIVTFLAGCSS
UniProt P9WFT3, whole entry: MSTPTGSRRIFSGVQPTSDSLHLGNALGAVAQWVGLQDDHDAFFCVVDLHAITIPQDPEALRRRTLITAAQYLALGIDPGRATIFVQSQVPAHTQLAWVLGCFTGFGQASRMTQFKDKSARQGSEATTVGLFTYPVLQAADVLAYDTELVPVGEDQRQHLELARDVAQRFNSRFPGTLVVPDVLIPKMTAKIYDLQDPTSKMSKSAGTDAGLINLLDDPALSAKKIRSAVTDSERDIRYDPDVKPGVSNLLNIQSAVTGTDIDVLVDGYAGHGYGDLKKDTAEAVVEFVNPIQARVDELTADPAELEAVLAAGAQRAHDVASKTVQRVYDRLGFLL

A: 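Enzyme assay of CoaBC with a phosphate dye (Biomol Green) read at 650 nm. Target: Coenzyme A biosynthesis protein CoaBC, Mycobacterium tuberculosis (UniProt P9WNZ1). Concentration: 30 µM. Higher reads as stronger inhibition, judged from the few compounds that gave an IC50. Most strong results did not repeat in a second test. Of about 67,000 compounds tested this way, about 40 (0.06%) reached 50% or more in at least one test.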
B: 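Tryptophan-tRNA ligase, Mycobacterium tuberculosis (UniProt P9WFT3). Enzyme assay of tryptophanyl-tRNA synthetase; the read-out is not stated. Tested at 10 µM. Direction is not recorded; retested compounds ran higher, which suggests that high means inhibition. Size under these conditions: about 65,000 compounds, about 64 of them at 50% or above in at least one test.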

Results are given as percent effect.
How 0% and 100% were set is not recorded. Most values in the screen are low, and negative values occur.
Compounds were drawn at random from those tested, without regard to their results.

For CC(=O)N1C[C@@H]2C(=O)N(C)C3(CCN(C(=O)C(C)C)CC3)[C@@H]2C1 the result was A: 6.616%; B: -2.668%.
For CC1(C)CC(=O)c2cnc3nc(N4CCCCC4)nc(O)c3c2C1 the result was A: -2.594%; B: 2.463%.
For O=C(c1cnccn1)N1CCC2(CC1)C(=O)NCC2c1ccccc1 (configuration not stated) the result was B: -3.776%.
For CSc1ncnc(NCc2ccccc2F)c1C#N the result was A: 4.153%; B: 2.417%.
For O=C(NCCc1ccncc1)c1cccc(S(=O)(=O)NC2CC2)c1 the result was A: 3.38%; B: 2.413%.
For NS(=O)(=O)CCN1CCN(c2cc(F)ccc2F)CC1 the result was A: -2.532%; B: 11.29%.
For CC(C)(N)C(=O)N1CCCC1c1cncc(Oc2ccc(F)cc2)n1 (configuration not stated) the result was A: 0.9162%; B: 1.25%.
For O=C(NC1CC1)N1CCOC2(CCCN(c3cccc(F)c3)C2)C1 (configuration not stated) the result was A: 4.167%; B: -5.712%.
For Cn1ccc(CN2CCC(c3ccccc3)CC2)cc1=O the result was A: 1.687%; B: -2.638%.
For CN1CCC2(CC1)CCN(C(=O)c1onc3ccccc13)C2 the result was A: 0.8264%; B: 3.818%.
For O=C(c1cccnc1N1CCCC1)N1CCOC(c2ccccc2)C1 (configuration not stated) the result was A: 6.813%; B: -0.6988%.
For COc1ccc(-c2nccn2CCN2CCCCC2)c(OC)c1OC the result was A: 2.539%; B: -3.306%.
For CCc1ncnc(N2CCOCC2CCO)c1F (configuration not stated) the result was A: 5.583%; B: -3.744%.
For Cc1nc(C)n(CCCNc2ncnc3onc(C)c23)n1 the result was A: -4.567%; B: 4.566%.
For O=C(NC1CCc2c(ccc(=O)n2CC2CC2)C1)c1ccsc1 (configuration not stated) the result was A: -7.083%; B: -6.7%.
For Cc1ccc2c(n1)N(CCn1cccn1)CCN(C(=O)CC1CC1)C2 the result was A: 5.286%; B: 2.85%.
For COc1ccc(C)cc1NC(=O)CNc1ccn(CC(N)=O)n1 the result was A: -0.1965%; B: 0.9336%.
For CC(C)(C)CNC(=O)c1ccc(C(=O)O)cn1 the result was A: -20.83%; B: 2.023%.
For CCC(=O)N1CCN(c2ncnc3cc4c(cc23)OCCO4)CC1 the result was A: -0.9238%; B: 5.181%.
For CCn1c(CC2CCN(C(=O)C3CNCCO3)CC2)nn(C)c1=O (configuration not stated) the result was A: 3.623%; B: -1.273%.
For Cc1nc(C)n(CC2CCCN(Cc3ccccc3C#N)C2)n1 (configuration not stated) the result was A: 14.69%; B: -4.172%.
For Cc1ccccc1N1CCN(C(=O)c2cnc(N(C)C)nc2C)C(C)C1 (configuration not stated) the result was A: 8.73%; B: 8.505%.
For CCCc1ccc(CN2CCC3(CCC(=O)N(CCCOC)C3)CC2)o1 the result was A: -9.685%; B: -1.782%.
For Cc1ccc(CN2CCc3ncnc(-c4ccoc4)c3CC2)o1 the result was A: -13.09%; B: -5.898%.
For CCC[C@@H](NC(N)=O)C(=O)N1CCc2c(Cl)cccc2C1 the result was A: 4.348%; B: 0.6744%.
For Cc1nc(CNCC2CCCN(C(=O)OC(C)(C)C)C2)cs1 (configuration not stated) the result was A: 5.529%; B: 0.1142%.
For Cc1noc(NCc2cc(F)ccc2F)n1 the result was A: -2.484%; B: -0.3303%.
For CC(C)(C)OC(=O)NCC1CCCCN1Cc1ccncc1 (configuration not stated) the result was A: 10.3%; B: -2.726%.
For Cc1c(Br)c(C(=O)NC(C)c2ccccc2)nn1C (configuration not stated) the result was A: 3.928%; B: -1.25%.
For Cc1ncsc1CN1C[C@@H]2COC[C@]2(C(=O)NC(C)C)C1 the result was A: 4.326%; B: -0.834%.
For CS(=O)(=O)N1CC2(CCCN2Cc2ccc(Cl)cc2)Cc2ccccc21 (configuration not stated) the result was A: 1.842%; B: 1.124%.
For Cc1cc(C)nc(N2CCC(NCCSc3nnnn3C)CC2)n1 the result was A: 1.474%; B: 1.419%.
For CC(=O)NCCCSC1CCN(c2c(F)cccc2F)C1=O (configuration not stated) the result was A: 7.439%; B: 2.649%.
For O=C(NCCCn1nc2ccccn2c1=O)Nc1ccc(F)cc1F the result was A: 0.1164%; B: -6.78%.
For Cc1cc2n(n1)CC(CNC1CCN(Cc3ccccc3C)CC1)CN2 (configuration not stated) the result was A: -39.65%; B: -4.359%.
For CN(Cc1ccccn1)C(=O)Nc1cc(C(F)(F)F)c[nH]c1=O the result was A: 7.231%; B: -1.04%.
For CC(C)OCCC(=O)NCC(c1c(F)cccc1F)N(C)C (configuration not stated) the result was A: 5.202%; B: 3.374%.
For CCn1cc(CN2CCCN(C(=O)c3ccoc3C)CC2)cn1 the result was A: -0.2611%; B: -5.768%.
For c1ccc(COC[C@H]2CC[C@H]3[C@H](CCN3Cc3ccccn3)O2)nc1 the result was A: 4.5%; B: -1.407%.
For Cc1cc(C)c(S(=O)(=O)Nc2c(C)nc(N(C)C)nc2C)cc1C the result was A: 6.622%; B: -1.25%.
For Cc1cc(O)nc(C2CCCN(Cc3ccncc3)C2)n1 (configuration not stated) the result was A: -6.667%; B: 0.9197%.
For CCc1cc2c(N3CCCC(c4cc(C(N)=O)[nH]n4)C3)ncnc2s1 (configuration not stated) the result was A: -2.664%; B: -3.43%.
For NS(=O)(=O)c1cnc(NCC2(c3cccc(F)c3)CCOCC2)s1 the result was A: 1.499%; B: -6.208%.
For CCOc1ccc(C(=O)N2CCC(Oc3ccccc3)(C(=O)O)CC2)o1 the result was A: -0.7212%; B: 0.1142%.
For Cc1noc(CCCC(=O)NC(C)c2cccnc2)n1 (configuration not stated) the result was A: 1.33%; B: -1.73%.
For Cc1cnn(CCNCc2nc(-c3ccsc3)oc2C)c1 the result was A: -1.582%; B: 0.7009%.
For Cc1ccc(C(=O)N2C[C@@H]3COC[C@]3(COc3cccnc3)C2)cn1 the result was A: 6.17%; B: -4.272%.

5 of the entries, repeated:

- CC(C)(C)OC(=O)NCC1CCCCN1Cc1ccncc1 (configuration not stated) : A: 10.3%; B: -2.726%
- CSc1ncnc(NCc2ccccc2F)c1C#N : A: 4.153%; B: 2.417%
- COc1ccc(-c2nccn2CCN2CCCCC2)c(OC)c1OC : A: 2.539%; B: -3.306%
- CC(=O)N1C[C@@H]2C(=O)N(C)C3(CCN(C(=O)C(C)C)CC3)[C@@H]2C1 : A: 6.616%; B: -2.668%
- Cc1cc(C)nc(N2CCC(NCCSc3nnnn3C)CC2)n1 : A: 1.474%; B: 1.419%

Data taken from ChEMBL document CHEMBL3988442, “University of Dundee, Small-Polar-MMV Screening Library” (2021).